Laboratory results reported in the supplement of paper PMC10338343.
± gives the standard deviation. The list shows a part of the results, in another mix than the full data. The uncertainty is large for many entries.

Each sequence was assayed on MIWI (PIWIL1) piRISC loaded with piRNA #2 (30 nt) (assay: pre-steady-state target cleavage rate (min^-1); MIWI and MILI are mouse PIWI proteins and EfPiwi is from a freshwater sponge; tags in brackets are library labels; higher = faster piRNA-guided slicing of the target). Conditions: guide: piRNA #2 5'p-UUAGGUAACCCAGUAGAUCCAGAGGAAUUC; auxiliary factor: 500 nM mouse GTSF1.
Summary of the method: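 Sequencing of uncleaved targets, normalised to depth and to weakly complementary targets, was the readout of this Cleave-'n-Seq assay. A transcribed, DNA-blocked target RNA library (0.1 nM) was mixed with 1 nM active affinity-purified piRISC carrying one synthetic guide, with or without 500 nM GTSF1 partner protein, in HEPES–potassium acetate buffer at 33 °C for 0–8 or 0–960 min. Three trials were pooled, k3 was capped at 0.0001 min^-1, and a burst-and-steady-state fit gave the pre-steady-state cleavage rate.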

Sequence	pre-steady-state target cleavage rate
CUUAAGGAGACCUACAACUGGGUUAGCUAA	0.000227 ± 0.027
CUUAAGGAGACCAUCUACUCGCUUACCUAA	0.000431 ± 0.006
CUUAAGGAGACCAUCUAGACGGUUACCUAA	0.000676 ± 0.011
CUUAAGGUCUGCAACUACUGGGUUACCUAA	0.0166 ± 0.017
CUUAAGGAGACCUAGUUCAGGGUUACCUAA	0.000651 ± 0.0099
CUUAAGGAGACGUUCUACUGCGUUACCUAA	0.00118 ± 0.0028
GAAUUCCUCUGGAUGUACUGGGUUACCUAA	0.352 ± 0.045
CUUAAGGAGACCUUGUAGUGGGUUACCUAA	0.00039 ± 0.016
CUUAAGGAGACCUUCUGACUGGGUUACCUAA	0.000103 ± 0.049
CUUUUCCUCUGGAUCUACUGAGUUACCUAA	0.727 ± 0.048
CUUUUCCUCUGGAUCUACUGGGUUACGUUA	0.374 ± 0.044
CUUAACCUGCUGGAUCUACUGGGUUACCUAA	0.356 ± 0.036
CUUAAGGAGACGAUCUACCGGGUUACCUAA	0.00125 ± 0.0099
CUUAAGGAGUGGAUCUUCUGGGAUACCUAA	0.000223 ± 0.039
CUUAAGGAGACCUAGUACUGGGAUACCUAA	0.000239 ± 0.025
CUUAAGGAGACCAUCCACUGGGUUACCUAA	0.00203 ± 0.0086
CUUAAGGAGUGGAUCUACUAGGGUUACCUAA	0.000585 ± 0.015
CUUAAGGAGACGAUCUACAGGGAUACCUAA	0.000719 ± 0.0098
CUUAAGGAGACCAUCUACUGGGGUUACCUAA	0.0013 ± 0.0078
CUUAAGGAGACCUUCUACUAGGUUACCUAA	0.00152 ± 0.0065
CUUAAGGAGACCAUCUAUUGGGUUACCUAA	0.00302 ± 0.0054
CUAUUCCUCUGGUUCUACUGGGUAACCUAA	0.156 ± 0.033
CAAUUCCUCUCGAUCUUCUGGGUUACCUAA	0.737 ± 0.059
CUUAAGGUCUGGAUCUACUGGUGUUACCUAA	0.000159 ± 0.029

A different layout for some results above.

| Sequence | pre-steady-state target cleavage rate |
| --- | --- |
| CUUAAGGAGACCAUCUAGACGGUUACCUAA | 0.000676 ± 0.011 |
| CUUAAGGUCUGCAACUACUGGGUUACCUAA | 0.0166 ± 0.017 |
| CUUAAGGAGACCUAGUUCAGGGUUACCUAA | 0.000651 ± 0.0099 |
| CUUAAGGAGACGUUCUACUGCGUUACCUAA | 0.00118 ± 0.0028 |
| GAAUUCCUCUGGAUGUACUGGGUUACCUAA | 0.352 ± 0.045 |
| CUUAAGGAGACCUUGUAGUGGGUUACCUAA | 0.00039 ± 0.016 |
| CUUAAGGAGACCUUCUGACUGGGUUACCUAA | 0.000103 ± 0.049 |
| CUUUUCCUCUGGAUCUACUGAGUUACCUAA | 0.727 ± 0.048 |
| CUUUUCCUCUGGAUCUACUGGGUUACGUUA | 0.374 ± 0.044 |
| CUUAACCUGCUGGAUCUACUGGGUUACCUAA | 0.356 ± 0.036 |
| CUUAAGGAGACGAUCUACCGGGUUACCUAA | 0.00125 ± 0.0099 |
| CUUAAGGAGUGGAUCUUCUGGGAUACCUAA | 0.000223 ± 0.039 |
| CUUAAGGAGACCUAGUACUGGGAUACCUAA | 0.000239 ± 0.025 |
| CUUAAGGAGACCAUCCACUGGGUUACCUAA | 0.00203 ± 0.0086 |
| CUUAAGGAGUGGAUCUACUAGGGUUACCUAA | 0.000585 ± 0.015 |
| CUUAAGGAGACGAUCUACAGGGAUACCUAA | 0.000719 ± 0.0098 |
| CUUAAGGAGACCAUCUACUGGGGUUACCUAA | 0.0013 ± 0.0078 |
| CUUAAGGAGACCUUCUACUAGGUUACCUAA | 0.00152 ± 0.0065 |
| CUUAAGGAGACCAUCUAUUGGGUUACCUAA | 0.00302 ± 0.0054 |
| CUAUUCCUCUGGUUCUACUGGGUAACCUAA | 0.156 ± 0.033 |

(list continues)

Sequence	pre-steady-state target cleavage rate
CUUAAGGAGACCUAGAAUCUGGGUUACCUAA	0.000556 ± 0.013
CUAUUCCUCUGGAUCUACUGGGUUUCCUAA	0.344 ± 0.053
CUUAAGGAGUGGAUCUAGUGGGAUACCUAA	0.000308 ± 0.019
GUAUUCCUCUGGAUCUACUGGGUUACGUAA	0.377 ± 0.057
CUUAAGGAGACCUAGUACUGGGGUUACCUAA	0.000418 ± 0.017
CUUAAGGACUGGAUCUACUGGGAAUCCUAA	0.0011 ± 0.023
CUUAAGCUCUGGAUCUCACUGGGUUACCUAA	0.000262 ± 0.031
CUUAAGGAGACCUACUACUGGGUUAGCCUAA	0.00185 ± 0.0067
CUUAAGGAGACCUACAACUGCGUUACCUAA	0.00266 ± 0.0034
CUAUUCCUCUGGAUCUAGACGGUUACCUAA	0.000265 ± 0.026
CUUAAGGAGACCUACUACUGGGUUAUCUAA	0.00246 ± 0.0047
CUUAAGGAGACCUAGUCUGGGUUACCUAA	0.00132 ± 0.0055
CUUAAGGAGACCUACUACUGGGAAACCUAA	0.00101 ± 0.0062
CUUAAGGACUGGAUCUUCUGGGAUACCUAA	0.00469 ± 0.011
GUAUUCCUCAGGAUCUACUGGGUUACCUAA	0.0863 ± 0.033
CUUAAGGAGACGAUCUACUGGGCUACCUAA	0.00133 ± 0.0087
CUUAAGGAGACGAUCUUCUGGGUUACGUAA	0.00237 ± 0.003
CUUAAGGAGACCAUUACUGGGUUACCUAA	0.0026 ± 0.0045
CUUAAGGAGACCUACACUGGGUUACCUAA	0.000759 ± 0.011
CUUAAGGAGACCAUCUACAGGGUAACCUAA	0.00126 ± 0.0076
CUUAAGGAGACCAUCUACUGGGAAACCUAA	0.000846 ± 0.011
CUUAAGGAGACCUAGAUGACGGUUACAUAA	0.000349 ± 0.015
CUAUUCCUCGGAUCUACUGGGUUACCUAA	0.447 ± 0.083
CUUAAGGAGACCAUCUACUGGGUUACCUCAA	0.00151 ± 0.0051

Sequence	pre-steady-state target cleavage rate
CUUAAGGAGAGGAUCUACUGGGUUCCUAA	0.000891 ± 0.0084
CUUAAGGAGUGGAUCUACUCGGUUACCUUA	0.00449 ± 0.007
CUUAAGGAGACGAUCAACUGGGUUUCCUAA	0.00101 ± 0.01
CUUAAGGACUGGAUCUAGAGGGUUACCUAA	0.00162 ± 0.0062
CUUAAGGAGACCUAGUACUGGGUUAGCUAA	0.000319 ± 0.014
CUUAAGCUCUGGAUCUACUGGUGUUACCUAA	0.000581 ± 0.017
CUUAAGGUCUGGAUCUACAUGGGUUACCUAA	0.000481 ± 0.013
CUUAAGGAGACGAUCUUCUGGGUUACCUUA	0.00136 ± 0.0049
CUUAACCUCUGGAUCUACUGCGGUUACCUAA	0.0011 ± 0.0057
CUUAAGGAGAGCAUCUACUCGGUUACCUAA	0.000848 ± 0.0052
CAAUUCCUCUGGAUCUACUGUGGUUACCUAA	0.00325 ± 0.0047
CUUAAGGACUGCAUCUACUCGGUUACCUAA	0.000798 ± 0.027
CUUAAGGAGACCAUCUACUGGGUUUGCUAA	0.00131 ± 0.0084
CUUAAGGAGACCUUCUACUGGUUUACCUAA	0.00179 ± 0.0067
CUUUACCUCUGGAUCUACUCGGUUACCUAA	0.0688 ± 0.0087
GAAUUCCUCUGGAACUACUGGGUUUCCUAA	0.646 ± 0.21
CUUAAGGAGAGGAUCUACAGGGUUACCUUA	0.00106 ± 0.0083
CUUAAGGAGUCCUUCUACUGGGUUACCUAA	0.003 ± 0.0034
CUUAAGGAGACGAUGUACUGGGUUACCUAA	0.000265 ± 0.013
GAAUUCCUCUGGAUCUACUGGCAAACCUAA	0.00289 ± 0.0033
CUUAAGGAGACCUUCUACUGCCAUACCUAA	0.000756 ± 0.0081
CUUAAGGAGACCAUGUACUGGGUUACCAAA	0.000687 ± 0.011
CUUAAGGAGAGGAUCUACAGGGUUUCCUAA	0.00122 ± 0.0074
CUUAAGGAGACGAUUACUGGGUUACCUAA	0.000843 ± 0.0094
